{"source": "the supplement of paper PMC4635364", "key": {"ReNCell VM [1]": {"tested_on": "ReNCell VM", "experiment": "neuronal differentiation score (DCX+ cell fraction vs untreated, manual image score) (score (-3 to 3)); higher = more neuronal differentiation", "settings": "2 uM, 2 weeks"}, "ReNCell VM [2]": {"tested_on": "ReNCell VM", "experiment": "dopaminergic neuron differentiation score (TH+ cell fraction vs untreated, manual image score) (score (0 to 3)); higher = more TH+ dopaminergic neuron differentiation", "settings": "2 uM, 4 weeks, BDNF 10 ng/ml + GDNF 10 ng/ml"}}, "note": "Where a name gives a salt, the structure may show the parent alone. The list shows a part of the results. Single values are uncertain here, since repeats match poorly.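 Cells: ReNCell VM human fetal ventral-midbrain neural progenitors, differentiated mitogen-free. Blinded raters compared doublecortin-stained (early neurons) or tyrosine hydroxylase-stained (dopaminergic neurons) images with untreated wells, where 0 means no change. After repeats and both raters were averaged, compounds scoring 2 or above became hits for retesting.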"}
{"molecule": "CCOC(=O)n1ccn(C)c1=S", "values": [{"measurement": "neuronal differentiation score", "setting": "ReNCell VM [1]; library: Spectrum", "result": "inactive: 0"}, {"measurement": "dopaminergic neuron differentiation score", "setting": "ReNCell VM [2]; library: Spectrum", "result": "inactive: 0"}]}
{"molecule": "O=c1c(-c2cc(O)c(O)c(O)c2)coc2cc(O)c(O)c(O)c12", "values": [{"measurement": "neuronal differentiation score", "setting": "ReNCell VM [1]; library: Spectrum", "result": "inactive: 0"}, {"measurement": "dopaminergic neuron differentiation score", "setting": "ReNCell VM [2]; library: Spectrum", "result": "inactive: 0"}]}
{"molecule": "C/C(=N\\NC(=O)C1C(=O)NCC1c1ccccc1)c1cccc(Br)c1", "note": "(stereo not given)", "values": [{"measurement": "neuronal differentiation score", "setting": "ReNCell VM [1]; library: Tocriscreen", "result": "inactive: 0"}, {"measurement": "dopaminergic neuron differentiation score", "setting": "ReNCell VM [2]; library: Tocriscreen", "result": "inactive: 0"}]}
{"molecule": "COc1cc(C)c2c(c1C=O)Oc1c(c(C)c(O)c3c1C(O)OC3=O)OC2=O", "note": "(stereo not given)", "values": [{"measurement": "neuronal differentiation score", "setting": "ReNCell VM [1]; library: Spectrum", "result": "inactive: 0"}, {"measurement": "dopaminergic neuron differentiation score", "setting": "ReNCell VM [2]; library: Spectrum", "result": "inactive: 0"}]}
{"molecule": "CN1Cc2c(N)cccc2C(c2ccccc2)C1", "note": "(stereo not given)", "values": [{"measurement": "neuronal differentiation score", "setting": "ReNCell VM [1]; library: Spectrum", "result": "inactive: 0"}, {"measurement": "dopaminergic neuron differentiation score", "setting": "ReNCell VM [2]; library: Spectrum", "result": "inactive: 0"}]}
{"molecule": "O=C(O)Cc1ccc(-c2ccccc2)cc1", "note": "[Felbinac]", "values": [{"measurement": "neuronal differentiation score", "setting": "ReNCell VM [1]; library: Prestwick", "result": "inactive: 0"}, {"measurement": "dopaminergic neuron differentiation score", "setting": "ReNCell VM [2]; library: Prestwick", "result": "inactive: 0"}]}
{"molecule": "CNc1cc2c(Nc3cccc(Br)c3)ncnc2cn1", "values": [{"measurement": "neuronal differentiation score", "setting": "ReNCell VM [1]; library: Tocriscreen", "result": "inactive: 0"}, {"measurement": "dopaminergic neuron differentiation score", "setting": "ReNCell VM [2]; library: Tocriscreen", "result": "inactive: 0"}]}
{"molecule": "CNc1ncnc2c1ncn2[C@@H]1O[C@H](CO)[C@@H](O)[C@H]1O", "note": "[N6-methyladenosine]", "values": [{"measurement": "neuronal differentiation score", "setting": "ReNCell VM [1]; library: Prestwick", "result": "inactive: 0"}, {"measurement": "dopaminergic neuron differentiation score", "setting": "ReNCell VM [2]; library: Prestwick", "result": "inactive: 0"}]}
{"molecule": "CC1=CC(=O)CC(C)(C)C1(O)/C=C/C(C)=C\\C(=O)O", "note": "(mixture of isomers) [abscisic acid (cis,trans, +/-)]", "values": [{"measurement": "neuronal differentiation score", "setting": "ReNCell VM [1]; library: Natural", "result": "inactive: 0"}, {"measurement": "dopaminergic neuron differentiation score", "setting": "ReNCell VM [2]; library: Natural", "result": "inactive: 0"}]}
{"molecule": "CS(=O)(=O)c1ccc([C@@H](O)[C@@H](CO)NC(=O)C(Cl)Cl)cc1", "values": [{"measurement": "neuronal differentiation score", "setting": "ReNCell VM [1]; library: Spectrum", "result": "inactive: 0"}, {"measurement": "dopaminergic neuron differentiation score", "setting": "ReNCell VM [2]; library: Spectrum", "result": "inactive: 0"}]}
{"molecule": "CO[C@@]1(NC(=O)C(C(=O)O)c2ccc(O)cc2)C(=O)N2C(C(=O)O)=C(CSc3nnnn3C)CO[C@@H]21", "note": "(stereo not given in full) [Moxalactam disodium salt]", "values": [{"measurement": "neuronal differentiation score", "setting": "ReNCell VM [1]; library: Prestwick", "result": "inactive: 0"}, {"measurement": "dopaminergic neuron differentiation score", "setting": "ReNCell VM [2]; library: Prestwick", "result": "inactive: 0"}]}
{"molecule": "COc1cc(OC)c2c(c1)OC(c1ccccc1)CC2=O", "note": "(stereo not given)", "values": [{"measurement": "neuronal differentiation score", "setting": "ReNCell VM [1]; library: Spectrum", "result": "inactive: 0"}, {"measurement": "dopaminergic neuron differentiation score", "setting": "ReNCell VM [2]; library: Spectrum", "result": "inactive: 0"}]}
{"molecule": "Cc1cc2cc3c(C)cc(=O)oc3c(C)c2o1", "values": [{"measurement": "neuronal differentiation score", "setting": "ReNCell VM [1]; library: Spectrum", "result": "inactive: 0"}, {"measurement": "dopaminergic neuron differentiation score", "setting": "ReNCell VM [2]; library: Spectrum", "result": "inactive: 0"}]}
{"molecule": "CC1=C(/C=C/C(C)=C/C=C/C(C)=C/C(=O)Nc2ccc(O)cc2)C(C)(C)CCC1", "note": "[Fenretinide]", "values": [{"measurement": "neuronal differentiation score", "setting": "ReNCell VM [1]; library: Tocriscreen", "result": "inactive: 0"}, {"measurement": "dopaminergic neuron differentiation score", "setting": "ReNCell VM [2]; library: Tocriscreen", "result": "inactive: 0"}]}
{"molecule": "Cn1c(=O)c2c(ncn2CC(O)CO)n(C)c1=O", "note": "(stereo not given)", "values": [{"measurement": "neuronal differentiation score", "setting": "ReNCell VM [1]; library: Spectrum", "result": "inactive: 0"}, {"measurement": "dopaminergic neuron differentiation score", "setting": "ReNCell VM [2]; library: Spectrum", "result": "inactive: 0"}]}
{"molecule": "CCC1=C(C)CN(C(=O)NCCc2ccc(S(=O)(=O)NC(=O)N[C@H]3CC[C@H](C)CC3)cc2)C1=O", "values": [{"measurement": "neuronal differentiation score", "setting": "ReNCell VM [1]; library: Spectrum", "result": "inactive: 1"}, {"measurement": "dopaminergic neuron differentiation score", "setting": "ReNCell VM [2]; library: Spectrum", "result": "inactive: 0"}]}
{"molecule": "COc1cc(NC(C)CCCN)c2ncccc2c1", "note": "(stereo not given)", "values": [{"measurement": "neuronal differentiation score", "setting": "ReNCell VM [1]; library: Spectrum", "result": "inactive: 0"}, {"measurement": "dopaminergic neuron differentiation score", "setting": "ReNCell VM [2]; library: Spectrum", "result": "inactive: 0"}]}
{"molecule": "O=c1[nH]cnc2c1ncn2[C@H]1CC[C@@H](CO)O1", "note": "[Didanosine]", "values": [{"measurement": "neuronal differentiation score", "setting": "ReNCell VM [1]; library: Prestwick", "result": "inactive: 0"}, {"measurement": "dopaminergic neuron differentiation score", "setting": "ReNCell VM [2]; library: Prestwick", "result": "inactive: 0"}]}
{"molecule": "O=c1ccc2ccc(O)cc2o1", "values": [{"measurement": "neuronal differentiation score", "setting": "ReNCell VM [1]; library: Spectrum", "result": "inactive: 0"}, {"measurement": "dopaminergic neuron differentiation score", "setting": "ReNCell VM [2]; library: Spectrum", "result": "inactive: 0"}]}
{"molecule": "O=C(O)c1ccccc1C(=O)Nc1ccc(S(=O)(=O)Nc2nccs2)cc1", "note": "[Phthalylsulfathiazole]", "values": [{"measurement": "neuronal differentiation score", "setting": "ReNCell VM [1]; library: Prestwick", "result": "inactive: 0"}, {"measurement": "dopaminergic neuron differentiation score", "setting": "ReNCell VM [2]; library: Prestwick", "result": "inactive: 0"}]}
{"molecule": "CC(=O)O[C@@H]1C[C@H]2C(C)(C)C(=O)C=C[C@]2(C)[C@H]2CC[C@@]3(C)[C@H](c4ccoc4)OC(=O)[C@H]4O[C@]43[C@@]21C", "values": [{"measurement": "neuronal differentiation score", "setting": "ReNCell VM [1]; library: Spectrum", "result": "inactive: 0"}, {"measurement": "dopaminergic neuron differentiation score", "setting": "ReNCell VM [2]; library: Spectrum", "result": "inactive: 0"}]}
{"molecule": "CCOC(=O)c1ncn2c1CN(C)C(=O)c1cc(F)ccc1-2", "values": [{"measurement": "neuronal differentiation score", "setting": "ReNCell VM [1]; library: Spectrum", "result": "inactive: 0"}, {"measurement": "dopaminergic neuron differentiation score", "setting": "ReNCell VM [2]; library: Spectrum", "result": "inactive: 0"}]}
{"molecule": "NCCC(=O)N[C@@H](Cc1c[nH]cn1)C(=O)O", "values": [{"measurement": "neuronal differentiation score", "setting": "ReNCell VM [1]; library: Spectrum", "result": "inactive: 0"}, {"measurement": "dopaminergic neuron differentiation score", "setting": "ReNCell VM [2]; library: Spectrum", "result": "inactive: 0"}]}
{"molecule": "Nc1nc2ccc(OC(F)(F)F)cc2s1", "values": [{"measurement": "neuronal differentiation score", "setting": "ReNCell VM [1]; library: Spectrum", "result": "inactive: 0"}, {"measurement": "dopaminergic neuron differentiation score", "setting": "ReNCell VM [2]; library: Spectrum", "result": "inactive: 0"}]}
{"molecule": "CC(C)[N+]1(C)[C@@H]2CC[C@H]1C[C@@H](OC(=O)C(CO)c1ccccc1)C2", "note": "(stereo not given in full)", "values": [{"measurement": "neuronal differentiation score", "setting": "ReNCell VM [1]; library: Spectrum", "result": "inactive: 0"}, {"measurement": "dopaminergic neuron differentiation score", "setting": "ReNCell VM [2]; library: Spectrum", "result": "inactive: 0"}]}
{"molecule": "CC/C(=C(/CC)c1ccc(O)cc1)c1ccc(O)cc1", "values": [{"measurement": "neuronal differentiation score", "setting": "ReNCell VM [1]; library: Spectrum", "result": "inactive: 0"}, {"measurement": "dopaminergic neuron differentiation score", "setting": "ReNCell VM [2]; library: Spectrum", "result": "inactive: 0"}]}
{"molecule": "CC(C)(C)NCC(O)COc1cccc2c1CC(O)C(O)C2", "note": "(stereo not given) [Nadolol]", "values": [{"measurement": "neuronal differentiation score", "setting": "ReNCell VM [1]; library: Prestwick", "result": "inactive: 0"}, {"measurement": "dopaminergic neuron differentiation score", "setting": "ReNCell VM [2]; library: Prestwick", "result": "inactive: 0"}]}
{"molecule": "O=C1C=C(O)c2ccccc2C1=O", "note": "[2-Hydroxy-[1,4]naphthoquinone]", "values": [{"measurement": "neuronal differentiation score", "setting": "ReNCell VM [1]; library: Phytochemical", "result": "inactive: 0"}, {"measurement": "dopaminergic neuron differentiation score", "setting": "ReNCell VM [2]; library: Phytochemical", "result": "inactive: 0"}]}
{"molecule": "CSc1ccc2c(c1)C(N1CCN(C)CC1)Cc1ccccc1S2", "note": "(stereo not given)", "values": [{"measurement": "neuronal differentiation score", "setting": "ReNCell VM [1]; library: Spectrum", "result": "inactive: 0"}, {"measurement": "dopaminergic neuron differentiation score", "setting": "ReNCell VM [2]; library: Spectrum", "result": "inactive: 0"}]}
{"molecule": "N#Cc1cc2nc(O)c(O)nc2cc1[N+](=O)[O-]", "note": "[CNQX disodium]", "values": [{"measurement": "neuronal differentiation score", "setting": "ReNCell VM [1]; library: LOPAC", "result": "inactive: 0"}, {"measurement": "dopaminergic neuron differentiation score", "setting": "ReNCell VM [2]; library: LOPAC", "result": "inactive: 0"}]}
{"molecule": "CN(C)CC[C@@H](c1ccc(Cl)cc1)c1ccccn1", "values": [{"measurement": "neuronal differentiation score", "setting": "ReNCell VM [1]; library: Spectrum", "result": "inactive: 0"}, {"measurement": "dopaminergic neuron differentiation score", "setting": "ReNCell VM [2]; library: Spectrum", "result": "inactive: 0"}]}
{"molecule": "COc1cc(OC)c(C(=O)CCCCN2CCC3(CC2)NC(=O)NC3=O)cc1NS(=O)(=O)c1ccc(C(F)(F)F)cc1", "values": [{"measurement": "neuronal differentiation score", "setting": "ReNCell VM [1]; library: Tocriscreen", "result": "inactive: 0"}, {"measurement": "dopaminergic neuron differentiation score", "setting": "ReNCell VM [2]; library: Tocriscreen", "result": "inactive: 0"}]}
{"molecule": "N[C@@H]1CONC1=O", "note": "[D-Cycloserine]", "values": [{"measurement": "neuronal differentiation score", "setting": "ReNCell VM [1]; library: LOPAC", "result": "inactive: 0"}, {"measurement": "dopaminergic neuron differentiation score", "setting": "ReNCell VM [2]; library: LOPAC", "result": "inactive: 0"}]}
{"molecule": "NC(=O)c1cc[n+](CC2=C(C(=O)O)N3C(=O)[C@@H](NC(=O)[C@@H](c4ccccc4)S(=O)(=O)[O-])[C@H]3SC2)cc1", "values": [{"measurement": "neuronal differentiation score", "setting": "ReNCell VM [1]; library: Spectrum", "result": "inactive: 0"}, {"measurement": "dopaminergic neuron differentiation score", "setting": "ReNCell VM [2]; library: Spectrum", "result": "inactive: 0"}]}
{"molecule": "O=C(O)c1ccc(-c2c[nH]c3ncc(-c4ccccc4)cc23)cc1C1CCCC1", "values": [{"measurement": "neuronal differentiation score", "setting": "ReNCell VM [1]; library: Tocriscreen", "result": "inactive: 0"}, {"measurement": "dopaminergic neuron differentiation score", "setting": "ReNCell VM [2]; library: Tocriscreen", "result": "inactive: 0"}]}
